Here are results for one compound from US11819483B2, “Combination therapy to treat urea cycle disorders” (Baylor College of Medicine, priority 2017, dated 2023).

SMILES strings stand for the structures. Marks after values point to notes of the source that are not given here.

A short description of the data set: Urinary excretion of phenylbutyrate, benzoate and their conjugated products; nitrogen conjugation in 24 h urine. To be noted: estimated average costs phenylbutyrate USD 24.7/g, benzoate USD 0.03/g. Here is the method: This was a randomized, three-arm, crossover study. Each arm was completed over a four-day period with a washout period of at least 7 days between any two of the treatment arms (FIG. 1). […] The treatments were designed to provide isomolar amount of drugs and the total daily dose was administered in three equally divided doses.
On day 1 of study arm 1, detailed medical history review and physical examination were performed. Complete blood count, comprehensive metabolic panel, plasma ammonia, and urinalysis (safety laboratory measurements) were performed. Urine pregnancy test was performed on all females. […]
Plasma and urinary drugs and their conjugated products as well as urea and amino acids were determined by mass spectrometry and quantitated based on the dilution of labeled internal standards. Total urinary nitrogen was determined using the micro-Kjeldahl method.
Plasma and urinary phenylbutyrate, PAA, and benzoate were determined as their pentafluorobenzyl derivatives by NCI-GC-MS; . […] Underivatized PAGN and HA were measured by HESI LC-MS/MS; [^2H5] […]
Accordingly, these background values were subtracted from the values obtained during the treatment with phenylbutyrate and benzoate. The total amount of nitrogen conjugated was expressed as fraction of the test meal, by dividing by the total nitrogen content of the test meal. […]

Consider `O=C([O-])c1ccccc1.[Na+]` [NaBz, sodium benzoate], for which the Conjugation efficiency is 2445.4 ^a mg of nitrogen excreted per USD. The Conjugation efficiency (listed as benzoate) is 2445.4 mg of nitrogen excreted per USD.
